Source: patent publication US20250032590A1, “PARATHYROID HORMONE COMPOUNDS IN THE TREATMENT OF HYPOPARATHYROIDISM” (AMOLYT PHARMA, priority 2023, published 2025)
Some entries share one result that the patent states for a list of compounds.

System: normal cynomolgus monkeys
Assay: Blood calcium after single injection in normal cynomolgus monkeys (Example 5)
Type: in vivo, cynomolgus monkey
Conditions: cynomolgus monkeys, single 10 nmole/kg
Protocol: To further examine how the potent and sustained biological activity induced by AZP-3601 could translate into potential clinical benefit for […] patients, its activity was examined in normal cynomolgus monkeys, a species much closer to humans and the most relevant for first in human dose-selection. Single injections of AZP-3601 were administered to normal cynomolgus monkeys. […] The dissociation between pharmacokinetic profile and pharmacodynamic effect is due to the short circulating half-life of AZP-3601 as opposed to the prolonged signaling caused by AZP-3601's potent interaction with the R^0 conformation of the PTH1 receptor.
In a second study as illustrated in panel B of FIG. 5, monkeys were injected with a single dose of either natural PTH (1-84) at 95 μg/kg, natural PTH (1-34) at 42 μg/kg or AZP-3601 at 42.7 μg/kg, which were equal doses of 10 nmole/kg, adjusted for the molecular weight of the individual compounds. In addition, a lower dose of 10.7 μg AZP-3601/kg (2.5 nmole/kg) was also tested.

Row | Substance | time for calcium levels to return to baseline
1 | PTH (1-84) [reference compound] | ≤ 24 h
2 | PTH(1-34) [reference compound] | ≤ 24 h
